Further values from the same series stand in other lists.
Columns and labels:
Type in all cases: cell-based
Details in all cases: U-87MG ATCC
[1] = Inhibition of RTK/PI3K/AKT/mTOR signaling in human U87 cells assessed as up regulation of chromosome 4 open reading frame 32 gene expression at cytotoxic IC50 measured after 48 hrs relative to control
[2] = Inhibition of RTK/PI3K/AKT/mTOR signaling in human U87 cells assessed as down regulation of HSD17B10 gene expression at cytotoxic IC50 measured after 48 hrs relative to control
[3] = Inhibition of RTK/PI3K/AKT/mTOR signaling in human U87 cells assessed as down regulation of LMNB1 gene expression at cytotoxic IC50 measured after 48 hrs relative to control
[4] = Inhibition of RTK/PI3K/AKT/mTOR signaling in human U87 cells assessed as up regulation of TEF, PAR bZIP transcription factor gene expression at cytotoxic IC50 measured after 48 hrs relative to control
[5] = Inhibition of RTK/PI3K/AKT/mTOR signaling in human U87 cells assessed as down regulation of SPDL1 gene expression at cytotoxic IC50 measured after 48 hrs relative to control
[6] = Inhibition of RTK/PI3K/AKT/mTOR signaling in human U87 cells assessed as up regulation of calcium voltage-gated channel auxiliary subunit beta 3 gene expression at cytotoxic IC50 measured after 48 hrs relative to control
[7] = Inhibition of RTK/PI3K/AKT/mTOR signaling in human U87 cells assessed as up regulation of hexosaminidase D gene expression at cytotoxic IC50 measured after 48 hrs relative to control
[8] = Inhibition of RTK/PI3K/AKT/mTOR signaling in human U87 cells assessed as down regulation of CRY2 gene expression at cytotoxic IC50 measured after 48 hrs relative to control
[9] = Inhibition of RTK/PI3K/AKT/mTOR signaling in human U87 cells assessed as up regulation of EIF3E gene expression at cytotoxic IC50 measured after 48 hrs relative to control
[10] = Inhibition of RTK/PI3K/AKT/mTOR signaling in human U87 cells assessed as up regulation of integrin subunit beta 4 gene expression at cytotoxic IC50 measured after 48 hrs relative to control
[11] = Inhibition of RTK/PI3K/AKT/mTOR signaling in human U87 cells assessed as down regulation of STK40 gene expression at cytotoxic IC50 measured after 48 hrs relative to control
[12] = Inhibition of RTK/PI3K/AKT/mTOR signaling in human U87 cells assessed as down regulation of BIRC2 gene expression at cytotoxic IC50 measured after 48 hrs relative to control
[13] = Inhibition of RTK/PI3K/AKT/mTOR signaling in human U87 cells assessed as up regulation of insulin receptor gene expression at cytotoxic IC50 measured after 48 hrs relative to control
[14] = Inhibition of RTK/PI3K/AKT/mTOR signaling in human U87 cells assessed as down regulation of PSMD14 gene expression at cytotoxic IC50 measured after 48 hrs relative to control
[15] = Inhibition of RTK/PI3K/AKT/mTOR signaling in human U87 cells assessed as down regulation of THADA gene expression at cytotoxic IC50 measured after 48 hrs relative to control
[16] = Inhibition of RTK/PI3K/AKT/mTOR signaling in human U87 cells assessed as up regulation of IGSF9 gene expression at cytotoxic IC50 measured after 48 hrs relative to control
[17] = Inhibition of RTK/PI3K/AKT/mTOR signaling in human U87 cells assessed as up regulation of GNAI1 gene expression at cytotoxic IC50 measured after 48 hrs relative to control
[18] = Inhibition of RTK/PI3K/AKT/mTOR signaling in human U87 cells assessed as up regulation of ABALON gene expression at cytotoxic IC50 measured after 48 hrs relative to control
[19] = Inhibition of RTK/PI3K/AKT/mTOR signaling in human U87 cells assessed as up regulation of eukaryotic translation elongation factor 1 alpha 2 gene expression at cytotoxic IC50 measured after 48 hrs relative to control
[20] = Inhibition of RTK/PI3K/AKT/mTOR signaling in human U87 cells assessed as up regulation of C14orf132 gene expression at cytotoxic IC50 measured after 48 hrs relative to control
[21] = Inhibition of RTK/PI3K/AKT/mTOR signaling in human U87 cells assessed as down regulation of ATG16L1 gene expression at cytotoxic IC50 measured after 48 hrs relative to control
[22] = Inhibition of RTK/PI3K/AKT/mTOR signaling in human U87 cells assessed as down regulation of SP2 gene expression at cytotoxic IC50 measured after 48 hrs relative to control
[23] = Inhibition of RTK/PI3K/AKT/mTOR signaling in human U87 cells assessed as down regulation of PLEKHM2 gene expression at cytotoxic IC50 measured after 48 hrs relative to control
[24] = Inhibition of RTK/PI3K/AKT/mTOR signaling in human U87 cells assessed as down regulation of EZH1 gene expression at cytotoxic IC50 measured after 48 hrs relative to control
[25] = Inhibition of RTK/PI3K/AKT/mTOR signaling in human U87 cells assessed as up regulation of EH domain binding protein 1 gene expression at cytotoxic IC50 measured after 48 hrs relative to control
[26] = Inhibition of RTK/PI3K/AKT/mTOR signaling in human U87 cells assessed as up regulation of ankyrin repeat and sterile alpha motif domain containing 6 gene expression at cytotoxic IC50 measured after 48 hrs relative to control
[27] = Inhibition of RTK/PI3K/AKT/mTOR signaling in human U87 cells assessed as down regulation of RB1CC1 gene expression at cytotoxic IC50 measured after 48 hrs relative to control
[28] = Inhibition of RTK/PI3K/AKT/mTOR signaling in human U87 cells assessed as up regulation of recombination signal binding protein for immunoglobulin kappa J region gene expression at cytotoxic IC50 measured after 48 hrs relative to control
[29] = Inhibition of RTK/PI3K/AKT/mTOR signaling in human U87 cells assessed as up regulation of cytochrome b5 type B gene expression at cytotoxic IC50 measured after 48 hrs relative to control
[30] = Inhibition of RTK/PI3K/AKT/mTOR signaling in human U87 cells assessed as up regulation of solute carrier family 35 member E2B gene expression at cytotoxic IC50 measured after 48 hrs relative to control
[31] = Inhibition of RTK/PI3K/AKT/mTOR signaling in human U87 cells assessed as down regulation of ATF7IP2 gene expression at cytotoxic IC50 measured after 48 hrs relative to control
[32] = Inhibition of RTK/PI3K/AKT/mTOR signaling in human U87 cells assessed as up regulation of KN motif and ankyrin repeat domains 3 gene expression at cytotoxic IC50 measured after 48 hrs relative to control

For CC(=O)C(=NNc1ccccc1C#N)C(C)=O, the log2FC [1] was 0.746, the log2FC [2] was -0.594 and the log2FC [3] was -0.796. For the same molecule, the log2FC [4] was 0.913, the log2FC [5] was -0.856 and the log2FC [6] was 0.856. For the same molecule, the log2FC [7] was 1.48, the log2FC [8] was -1.3 and the log2FC [9] was 0.643. The log2FC [10] was 1.38, the log2FC [11] was -0.574 and the log2FC [12] was -0.448. It also gave a log2FC [13] of 0.735, a log2FC [14] of -0.709 and a log2FC [15] of -0.658. For the same molecule, the log2FC [16] was 1.91, the log2FC [17] was 0.439 and the log2FC [18] was 2.96. It also gave a log2FC [19] of 0.829, a log2FC [20] of 1.73 and a log2FC [21] of -0.763. For the same molecule, the log2FC [22] was -0.737, the log2FC [23] was -0.675 and the log2FC [24] was -0.729. For the same molecule, the log2FC [25] was 1.43, the log2FC [26] was 0.818 and the log2FC [27] was -0.697. The log2FC [28] was 0.928, the log2FC [29] was 0.714 and the log2FC [30] was 0.977. It also gave a log2FC [31] of -1.9 and a log2FC [32] of 1.41.
